In paper PMC4207805:
These are yes or no findings as the source states them, for the method shown. Binding seen in cells or lysates may run through a third protein. Some binding calls cover weakened binding; strength is not graded here. For part of these data: Sequences can lack the tags named with a protein.

Sequences of proteins named here, by UniProt entry; tags and fusion partners are left off. A change or cut given only in a name is not applied to a line headed by its entry. Residues count along the entry.
UniProt Q07820: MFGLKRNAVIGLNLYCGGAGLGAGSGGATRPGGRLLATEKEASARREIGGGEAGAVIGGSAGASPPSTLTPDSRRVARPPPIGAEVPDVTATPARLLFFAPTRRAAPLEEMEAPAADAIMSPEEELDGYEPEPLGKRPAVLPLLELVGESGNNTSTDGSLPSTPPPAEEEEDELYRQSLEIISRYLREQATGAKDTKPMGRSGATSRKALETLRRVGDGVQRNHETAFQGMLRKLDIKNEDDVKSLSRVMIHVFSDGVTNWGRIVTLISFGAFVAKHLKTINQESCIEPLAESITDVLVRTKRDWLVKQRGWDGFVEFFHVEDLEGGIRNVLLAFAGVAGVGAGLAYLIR
UniProt Q7Z6Z7: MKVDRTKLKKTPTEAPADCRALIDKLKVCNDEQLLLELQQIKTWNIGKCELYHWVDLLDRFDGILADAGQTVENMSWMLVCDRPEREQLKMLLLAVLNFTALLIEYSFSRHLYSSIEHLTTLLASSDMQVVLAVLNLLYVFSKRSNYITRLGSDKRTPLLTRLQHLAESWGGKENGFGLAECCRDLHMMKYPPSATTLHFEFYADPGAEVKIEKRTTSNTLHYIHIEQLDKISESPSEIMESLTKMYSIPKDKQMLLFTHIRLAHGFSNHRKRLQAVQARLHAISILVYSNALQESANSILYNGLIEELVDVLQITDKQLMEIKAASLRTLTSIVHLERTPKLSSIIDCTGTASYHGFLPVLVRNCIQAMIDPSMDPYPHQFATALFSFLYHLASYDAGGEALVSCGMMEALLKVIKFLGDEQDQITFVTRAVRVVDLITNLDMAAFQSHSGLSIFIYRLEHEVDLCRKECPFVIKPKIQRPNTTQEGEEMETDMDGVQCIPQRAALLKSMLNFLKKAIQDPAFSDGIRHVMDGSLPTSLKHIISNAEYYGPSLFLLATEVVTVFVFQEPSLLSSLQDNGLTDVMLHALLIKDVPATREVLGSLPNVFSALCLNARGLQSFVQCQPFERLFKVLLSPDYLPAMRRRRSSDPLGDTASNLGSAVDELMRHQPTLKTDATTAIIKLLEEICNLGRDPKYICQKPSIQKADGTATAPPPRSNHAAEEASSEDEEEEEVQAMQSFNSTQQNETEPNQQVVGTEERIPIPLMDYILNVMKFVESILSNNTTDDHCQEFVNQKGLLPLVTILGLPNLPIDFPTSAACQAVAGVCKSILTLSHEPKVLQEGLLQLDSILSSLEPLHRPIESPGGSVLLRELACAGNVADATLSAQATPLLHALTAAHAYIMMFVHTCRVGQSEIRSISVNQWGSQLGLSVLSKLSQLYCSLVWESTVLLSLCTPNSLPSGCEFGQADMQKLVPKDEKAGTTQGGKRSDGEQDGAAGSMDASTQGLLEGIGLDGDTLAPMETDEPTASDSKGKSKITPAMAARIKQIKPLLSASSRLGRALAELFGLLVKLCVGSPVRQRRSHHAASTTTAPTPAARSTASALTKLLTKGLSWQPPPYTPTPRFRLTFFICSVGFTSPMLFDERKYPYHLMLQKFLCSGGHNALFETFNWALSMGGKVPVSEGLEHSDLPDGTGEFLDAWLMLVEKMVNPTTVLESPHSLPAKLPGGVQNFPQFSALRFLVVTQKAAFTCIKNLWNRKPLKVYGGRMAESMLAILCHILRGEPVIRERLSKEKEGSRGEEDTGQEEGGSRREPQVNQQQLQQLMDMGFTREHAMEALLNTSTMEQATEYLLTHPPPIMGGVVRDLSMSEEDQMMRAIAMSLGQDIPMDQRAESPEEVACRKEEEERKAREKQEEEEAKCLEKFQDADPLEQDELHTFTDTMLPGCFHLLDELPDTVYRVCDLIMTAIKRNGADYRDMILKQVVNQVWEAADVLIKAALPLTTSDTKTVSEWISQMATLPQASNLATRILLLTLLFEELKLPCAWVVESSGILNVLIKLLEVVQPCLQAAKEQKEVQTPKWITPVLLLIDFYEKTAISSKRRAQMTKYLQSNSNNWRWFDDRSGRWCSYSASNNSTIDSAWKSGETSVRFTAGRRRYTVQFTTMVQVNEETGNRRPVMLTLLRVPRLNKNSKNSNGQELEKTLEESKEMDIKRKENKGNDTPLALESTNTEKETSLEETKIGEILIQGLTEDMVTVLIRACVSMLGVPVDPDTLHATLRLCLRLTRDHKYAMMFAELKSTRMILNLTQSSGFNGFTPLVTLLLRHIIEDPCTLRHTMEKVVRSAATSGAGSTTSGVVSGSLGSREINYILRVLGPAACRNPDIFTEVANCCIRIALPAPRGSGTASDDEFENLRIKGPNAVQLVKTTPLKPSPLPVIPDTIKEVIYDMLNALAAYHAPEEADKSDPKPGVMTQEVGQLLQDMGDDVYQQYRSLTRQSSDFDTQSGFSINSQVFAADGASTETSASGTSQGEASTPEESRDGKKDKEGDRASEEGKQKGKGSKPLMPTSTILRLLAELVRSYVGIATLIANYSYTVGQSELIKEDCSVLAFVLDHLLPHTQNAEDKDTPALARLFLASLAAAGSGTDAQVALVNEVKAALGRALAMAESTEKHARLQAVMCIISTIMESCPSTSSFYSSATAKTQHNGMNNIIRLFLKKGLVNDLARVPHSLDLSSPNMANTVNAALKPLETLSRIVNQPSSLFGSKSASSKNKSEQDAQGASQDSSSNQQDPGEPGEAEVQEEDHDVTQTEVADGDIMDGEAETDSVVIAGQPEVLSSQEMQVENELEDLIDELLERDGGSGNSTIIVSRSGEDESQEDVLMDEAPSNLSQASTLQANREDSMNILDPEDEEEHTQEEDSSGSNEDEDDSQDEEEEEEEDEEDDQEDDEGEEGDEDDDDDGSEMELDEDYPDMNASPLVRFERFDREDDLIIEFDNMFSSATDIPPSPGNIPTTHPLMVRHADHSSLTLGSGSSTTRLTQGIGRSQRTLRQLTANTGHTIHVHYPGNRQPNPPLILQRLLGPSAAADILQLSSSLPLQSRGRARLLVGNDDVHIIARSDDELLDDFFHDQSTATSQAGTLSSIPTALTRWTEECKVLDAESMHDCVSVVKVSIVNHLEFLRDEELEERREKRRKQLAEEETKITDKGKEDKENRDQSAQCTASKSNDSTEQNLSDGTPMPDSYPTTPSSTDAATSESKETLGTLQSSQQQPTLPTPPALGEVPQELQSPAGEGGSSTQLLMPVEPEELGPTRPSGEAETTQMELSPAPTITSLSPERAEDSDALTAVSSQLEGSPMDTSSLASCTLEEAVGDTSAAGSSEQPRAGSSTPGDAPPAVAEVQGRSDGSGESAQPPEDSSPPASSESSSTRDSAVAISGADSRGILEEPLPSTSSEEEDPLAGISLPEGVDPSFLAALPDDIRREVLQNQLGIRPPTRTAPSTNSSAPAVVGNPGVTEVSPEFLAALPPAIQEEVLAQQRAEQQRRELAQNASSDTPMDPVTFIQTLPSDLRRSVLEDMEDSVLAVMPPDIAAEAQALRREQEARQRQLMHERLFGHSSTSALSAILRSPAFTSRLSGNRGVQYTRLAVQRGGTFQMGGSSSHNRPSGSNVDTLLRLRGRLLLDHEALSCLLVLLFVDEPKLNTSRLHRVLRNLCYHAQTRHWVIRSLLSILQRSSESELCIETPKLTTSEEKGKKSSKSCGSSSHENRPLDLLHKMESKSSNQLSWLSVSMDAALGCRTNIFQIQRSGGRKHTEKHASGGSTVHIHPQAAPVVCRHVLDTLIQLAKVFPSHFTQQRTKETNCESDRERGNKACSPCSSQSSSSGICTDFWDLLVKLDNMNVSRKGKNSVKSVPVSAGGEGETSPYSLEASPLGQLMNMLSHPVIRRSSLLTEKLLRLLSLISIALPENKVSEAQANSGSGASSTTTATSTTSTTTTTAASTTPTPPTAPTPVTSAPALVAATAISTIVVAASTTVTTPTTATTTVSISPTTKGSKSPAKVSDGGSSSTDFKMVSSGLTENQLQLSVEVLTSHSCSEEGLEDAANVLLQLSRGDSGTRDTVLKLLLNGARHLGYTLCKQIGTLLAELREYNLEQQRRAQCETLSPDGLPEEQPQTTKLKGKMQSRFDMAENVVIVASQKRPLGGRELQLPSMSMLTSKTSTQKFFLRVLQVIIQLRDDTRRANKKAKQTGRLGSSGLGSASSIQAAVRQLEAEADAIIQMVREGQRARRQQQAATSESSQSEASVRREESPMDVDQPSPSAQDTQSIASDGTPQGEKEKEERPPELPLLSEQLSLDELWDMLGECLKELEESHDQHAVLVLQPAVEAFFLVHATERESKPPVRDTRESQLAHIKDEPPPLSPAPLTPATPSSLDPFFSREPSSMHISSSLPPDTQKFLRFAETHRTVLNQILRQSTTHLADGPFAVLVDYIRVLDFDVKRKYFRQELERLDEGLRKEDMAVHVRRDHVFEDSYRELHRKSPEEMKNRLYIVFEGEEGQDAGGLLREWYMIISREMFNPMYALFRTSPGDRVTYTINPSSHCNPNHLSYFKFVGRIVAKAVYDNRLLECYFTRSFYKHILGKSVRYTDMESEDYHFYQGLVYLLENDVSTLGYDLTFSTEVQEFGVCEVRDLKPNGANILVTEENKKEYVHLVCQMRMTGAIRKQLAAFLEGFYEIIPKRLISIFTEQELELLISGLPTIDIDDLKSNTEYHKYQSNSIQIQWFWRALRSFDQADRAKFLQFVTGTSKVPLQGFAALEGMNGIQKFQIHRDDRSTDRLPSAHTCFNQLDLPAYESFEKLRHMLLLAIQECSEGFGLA
UniProt Q9Y4K3, residues 1-351: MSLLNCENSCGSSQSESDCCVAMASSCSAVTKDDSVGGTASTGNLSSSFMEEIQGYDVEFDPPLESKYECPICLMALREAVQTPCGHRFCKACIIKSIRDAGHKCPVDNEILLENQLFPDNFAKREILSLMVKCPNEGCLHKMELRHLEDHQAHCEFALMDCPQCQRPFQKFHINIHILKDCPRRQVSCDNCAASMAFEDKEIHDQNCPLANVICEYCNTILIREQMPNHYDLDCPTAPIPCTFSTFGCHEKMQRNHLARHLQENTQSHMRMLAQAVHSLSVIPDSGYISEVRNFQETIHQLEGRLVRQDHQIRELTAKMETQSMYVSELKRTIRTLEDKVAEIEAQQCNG

Columns and labels:
Flag-MCL-1 (human) = Flag-MCL-1 (human) (UniProt Q07820); assay: co-IP; lysates of 293T cells transfected with Flag-MCL-1 and Flag-MULE, HA-FBW7 or HA-βTRCP, with or without Tax; untreated or etoposide (10 µM, 6 h) with MG-132 (10 µM)
HTLV-1 Tax (HTLV-1) = HTLV-1 Tax (HTLV-1) (UniProt P03409); assay: co-IP; Tax immunoprecipitates from RIPA lysates of 293T cells transfected with Tax and Flag-tagged TRAF proteins or TRAF6 deletion mutants; anti-Flag blot
[1] = molecular target: HTLV-1 Tax (HTLV-1), P03409; assay: as above; conditions: remark: other sources report otherwise

## Flag-MULE (from UniProt Q7Z6Z7 1-4374) (enzyme)
Flag-MCL-1 (human)
  binding: binds

## Flag-TRAF6 ΔTRAF-C (1–351 residues) (from UniProt Q9Y4K3 1-351) (domain or fragment)
HTLV-1 Tax (HTLV-1)
  binding: no binding

B1: Flag-TRAF2, Q12933 1-501 (protein)
chain: MAAASVTPPGSLELLQPGFSKTLLGTKLEAKYLCSACRNVLRRPFQAQCGHRYCSFCLASILSSGPQNCAACVHEGIYEEGISILESSSAFPDNAARREVESLPAVCPSDGCTWKGTLKEYESCHEGRCPLMLTECPACKGLVRLGEKERHLEHECPERSLSCRHCRAPCCGADVKAHHEVCPKFPLTCDGCGKKKIPREKFQDHVKTCGKCRVPCRFHAIGCLETVEGEKQQEHEVQWLREHLAMLLSSVLEAKPLLGDQSHAGSELLQRCESLEKKTATFENIVCVLNREVERVAMTAEACSRQHRLDQDKIEALSSKVQQLERSIGLKDLAMADLEQKVLEMEASTYDGVFIWKISDFARKRQEAVAGRIPAIFSPAFYTSRYGYKMCLRIYLNGDGTGRGTHLSLFFVVMKGPNDALLRWPFNQKVTLMLLDQNNREHVIDAFRPDVTSSSFQRPVNDMNIASGCPLFCPVSKMEAKNSYVRDDAIFIKAIVDLTGL
[1]
  binding: no binding
